From patent US20140178329A1
These are yes or no findings as the source states them, for the method shown. Tags and fused reporters may be left off the sequences shown.

Sequences of proteins named here, by UniProt entry; tags and fusion partners are left off. A change or cut given only in a name is not applied to a line headed by its entry.
UniProt O75888: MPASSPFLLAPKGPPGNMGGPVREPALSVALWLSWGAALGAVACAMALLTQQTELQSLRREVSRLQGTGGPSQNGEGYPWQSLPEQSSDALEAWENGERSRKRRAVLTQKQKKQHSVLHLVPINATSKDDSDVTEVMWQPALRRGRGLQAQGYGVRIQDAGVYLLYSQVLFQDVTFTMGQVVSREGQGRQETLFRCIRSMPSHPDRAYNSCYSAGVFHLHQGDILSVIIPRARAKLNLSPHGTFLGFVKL

Key:
[1] = target: T1, mouse TACI-Fc (R&D Systems) (mouse; human) (UniProt Q9ET35); test: SPR (Biacore), FLAG-APRIL captured by anti-FLAG M2, receptor-Fc injected
T1 sequence (looked up): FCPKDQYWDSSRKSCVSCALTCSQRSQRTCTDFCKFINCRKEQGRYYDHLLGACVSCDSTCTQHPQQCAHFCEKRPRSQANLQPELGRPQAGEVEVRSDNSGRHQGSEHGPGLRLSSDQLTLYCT

[2] = target: T1, mouse TACI-Fc (R&D Systems) (mouse; human); test: SPR (Biacore), FLAG-APRIL captured on anti-FLAG M2, mouse TACI-Fc injected at 1, 5, 10 and 25 nM [murine TACI]
[3] = target: T1, mouse TACI-Fc (R&D Systems) (mouse; human); test: condition: first (most concentrated) conditioned medium of the series; receptor-binding ELISA, mouse TACI-Fc coated [BCMA selective, Ms TACI-Fc coated]

## APRIL-R206E (FLAG-tagged soluble variant) (from UniProt O75888 105-250) (ligand)
[1]
  binding: no binding (tested: 1-50 nM)
[2]
  binding: no binding (tested: 25 nM)
[3]
  binding: no binding
